Measured values published in paper PMC3032050, “LPS ligand and culture additives improve production of monomeric MD-1 and 2 in Pichia pastoris by decreasing aggregation and intermolecular disulfide bonding” (Protein Expression and Purification, 2011).
No constants are given. Whether binding was seen depends on the method and setting. Some entries that bind do so weakly or less than the wild type.

Key:
Settings in all cases: remark: other sources report otherwise
[1] = biological target: T1, human MD-2 (myeloid differentiation factor 2) (human), Q9Y6Y9; experiment: non-reducing SDS-PAGE with anti-His Western blot; culture supernatants of GS115 and KM71H cultures, induced without or with culture additives
T1 chain: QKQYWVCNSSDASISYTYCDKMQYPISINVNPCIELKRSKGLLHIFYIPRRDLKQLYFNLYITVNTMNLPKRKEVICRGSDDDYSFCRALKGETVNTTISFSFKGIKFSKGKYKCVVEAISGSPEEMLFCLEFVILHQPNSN

[2] = biological target: T1, human MD-2 (myeloid differentiation …); experiment: non-reducing SDS-PAGE; gel-filtration peak fractions on a non-reducing Coomassie-stained SDS-PAGE gel; both purified
[3] = biological target: T1, human MD-2 (myeloid differentiation …); experiment: SEC; nickel-purified protein on HiLoad 16/60 Superdex 200 in 50 mM sodium acetate, pH 5.0; without additive, or with the anti-aggregation additive (0.2 M MgSO4 for hMD-2) in culture medium and buffers; both purified

Measured: binding

B1: human MD-2 (myeloid differentiation factor 2), Q9Y6Y9 19-160 (natural protein)
chain: T1 chain
binds: all assays above
